Assay results: doi:10.1101/2022.12.09.519723
These are yes or no findings as the source states them, for the method shown. Binding seen in cells or lysates may run through a third protein. Some results given as binding are weak or reduced against the parent protein; the word gives no strength.

The chains behind the UniProt entries cited, without tags or fusion partners.
UniProt P41595: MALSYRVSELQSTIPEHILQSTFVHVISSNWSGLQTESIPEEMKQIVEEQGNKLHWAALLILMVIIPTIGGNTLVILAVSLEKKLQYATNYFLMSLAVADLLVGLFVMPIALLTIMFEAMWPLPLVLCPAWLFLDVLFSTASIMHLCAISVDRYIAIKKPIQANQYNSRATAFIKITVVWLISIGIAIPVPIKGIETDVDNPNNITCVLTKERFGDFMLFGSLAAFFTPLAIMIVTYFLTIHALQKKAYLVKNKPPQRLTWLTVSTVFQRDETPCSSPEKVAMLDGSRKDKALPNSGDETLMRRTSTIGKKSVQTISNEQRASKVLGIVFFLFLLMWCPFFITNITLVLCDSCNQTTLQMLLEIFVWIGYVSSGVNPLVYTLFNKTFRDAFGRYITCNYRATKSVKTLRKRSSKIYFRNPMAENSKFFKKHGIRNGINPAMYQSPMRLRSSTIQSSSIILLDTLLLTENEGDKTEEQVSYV
UniProt P08908: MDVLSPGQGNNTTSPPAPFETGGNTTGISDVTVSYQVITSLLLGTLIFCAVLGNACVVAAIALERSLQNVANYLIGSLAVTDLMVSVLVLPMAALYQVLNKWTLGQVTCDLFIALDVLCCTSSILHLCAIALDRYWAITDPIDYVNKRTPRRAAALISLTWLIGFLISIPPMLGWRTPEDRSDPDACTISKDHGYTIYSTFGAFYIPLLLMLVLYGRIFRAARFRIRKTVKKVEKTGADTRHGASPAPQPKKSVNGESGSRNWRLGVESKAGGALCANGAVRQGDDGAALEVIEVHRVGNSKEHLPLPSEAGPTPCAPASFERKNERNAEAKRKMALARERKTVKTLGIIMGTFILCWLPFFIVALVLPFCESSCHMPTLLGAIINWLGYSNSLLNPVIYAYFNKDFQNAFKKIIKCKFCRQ

Assays:
[1] = molecular target: HA-tagged 5-HT2B receptor (UniProt P41595); assay: co-IP
[2] = molecular target: 5-HT2B-R-Rluc (5-HT2B receptor fused to Renilla luciferase, BRET donor) (UniProt P41595); assay: FRET or BRET

| Substance | binding [1] | binding [2] |
| --- | --- | --- |
| myc-tagged 5-HT1A receptor (from UniProt P08908 1-422) | binds | – |
| YFP-tagged 5-HT2B-R (5-HT2B receptor fused to yellow fluorescent protein, BRET acceptor control) (from UniProt P41595 1-481) | – | no binding |
| 5-HT1A-R-YFP (5-HT1A receptor fused to yellow fluorescent protein, BRET acceptor) (from UniProt P08908 1-422) | – | binds |
